# Results deposited as PubChem BioAssay AID720505 (Drosophila RNAi Screening Center, 2013)
# Screen: 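Knock-downs that reduce calcium influx once internal stores are emptied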 (primary screen)
# System: Drosophila S2R+ cells
# Reagent: long dsRNA against Drosophila genes
# Conditions: thapsigargin (2 µM) in calcium-free buffer to empty internal stores, then 2 mM calcium added back
# Measurement: 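Fluo-4 signal in 384-well plates read on a FLIPR after thapsigargin (2 µM, calcium-free) store depletion and 2 mM calcium add-back; unnormalised mean endpoint per well; screen run twice, selected wells retested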
# Reading the numbers: calcium signal: higher = more calcium entry after store depletion
# Active means: 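About 1500 genes called as lowering calcium entry, by varying amounts, judged against per-plate control wells with STIM1 as positive and Rho1 as negative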
# Calls: active = called as lowering calcium entry; inactive = not called
# The deposit covers about 20,000 reagents; below is an unselected part of those that have a named target and a result. In the full data, about 2,100 (10%) were called active. 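Raw plate signals without normalisation; calls rest on control-based scores that were not deposited; replicate 2 separates called from uncalled poorly.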 Names joined by + are all predicted targets of the reagent. No sequences are given here. Not given: the amount of reagent, the time to read-out.
Target gene,amplicon,"calcium signal, replicate 1","calcium signal, replicate 2",Call
CG15912,DRSC18105,237,130,inactive
MTPAP,DRSC18585,106,110,inactive
CG3081,DRSC18571,200,97.2,inactive
HP1b,DRSC18418,104,95.4,inactive
Gcn5,DRSC11248,83.5,85.3,inactive
Spt,DRSC07123,70,110,inactive
GEFmeso,DRSC06748,171,100,inactive
GEFmeso,DRSC06940,176,151,inactive
GEFmeso,DRSC21475,137,112,inactive
CG17187,DRSC15181,65.9,108,active
CG42372 + CG30100,DRSC05602,55.7,91.1,active
Gdap1,DRSC10437,110,112,inactive
CG11893,DRSC14429,295,105,inactive
CG18449,DRSC06754,118,141,inactive
MICAL-like,DRSC09829,63.2,121,active
asRNA:CR43477 + CG12256,DRSC14484,92.9,96.6,inactive
CG5412,DRSC15796,183,294,inactive
Ama,DRSC12489,122,163,inactive
pen-2,DRSC05722,75.6,76.6,active
ReepB,DRSC07150,165,167,inactive
CG13144,DRSC02241,165,132,inactive
CG14983,DRSC08441,93.5,81.3,inactive
CG14718,DRSC14941,104,156,inactive
Mat89Ba,DRSC14540,135,216,inactive
mv (retired record),DRSC08208,87.6,114,inactive
mv (retired record),DRSC08570,79.1,102,inactive
epsilonTry,DRSC07611,137,215,inactive
CG17726,DRSC15255,86.6,132,inactive
CG42369,DRSC03244,96.3,82.4,inactive
PRL-1,DRSC03393,87.1,84.4,inactive
RpL39,DRSC04651,43.3,97.4,active
Rat1,DRSC02044,91.1,139,inactive
CG1671,DRSC06617,201,187,inactive
Vps39,DRSC16205,202,245,inactive

5 entries from above, set out differently:
Target gene	amplicon	calcium signal, replicate 1	calcium signal, replicate 2	Call
HP1b	DRSC18418	104	95.4	inactive
Gcn5	DRSC11248	83.5	85.3	inactive
Spt	DRSC07123	70	110	inactive
GEFmeso	DRSC06748	171	100	inactive
GEFmeso	DRSC06940	176	151	inactive
